Experimental data published in paper PMC6706379.
Results are given in words; binding and its absence hold for the method and conditions named. Binding seen in cells or lysates may run through a third protein. Some results given as binding are weak or reduced against the parent protein; the word gives no strength.

Chains of the proteins cited; added tags and fusions are not shown.
UniProt P08207: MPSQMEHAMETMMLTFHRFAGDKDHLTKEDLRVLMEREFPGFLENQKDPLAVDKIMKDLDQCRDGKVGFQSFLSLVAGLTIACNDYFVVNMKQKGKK
UniProt O35111: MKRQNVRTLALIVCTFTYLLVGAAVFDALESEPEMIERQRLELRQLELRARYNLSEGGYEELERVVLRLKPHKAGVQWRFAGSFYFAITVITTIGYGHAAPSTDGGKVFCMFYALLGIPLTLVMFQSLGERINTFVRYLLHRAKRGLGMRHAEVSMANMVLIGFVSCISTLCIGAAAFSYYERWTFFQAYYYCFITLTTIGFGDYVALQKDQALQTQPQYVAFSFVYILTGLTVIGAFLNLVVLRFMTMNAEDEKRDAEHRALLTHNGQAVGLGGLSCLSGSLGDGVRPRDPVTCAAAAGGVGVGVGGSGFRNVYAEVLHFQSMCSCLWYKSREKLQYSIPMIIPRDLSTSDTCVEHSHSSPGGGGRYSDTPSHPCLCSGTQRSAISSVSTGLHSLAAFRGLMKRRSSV

Target: adaptor protein p11 (S100A10) (mouse (endogenous in adult CD1 mouse brain)) (UniProt P08207)
Assay: co-IP; anti-p11 antibody (10 ug, R&D systems) on Pierce co-immunoprecipitation resin; adult mouse (CD1) brain homogenate in 50 mM Tris, 150 mM NaCl, 1 mM EDTA, 1% NP40, 5% glycerol, pH 7.4, overnight at 4 °C; two elutions (E1, E2) immunoblotted for p11 and TASK1; anti-sheep IgG as control

binding: binds
Substance: TASK1 (TWIK-related acid-sensitive K+ subunit 1) (from UniProt O35111 1-409)
